Measurements: publication PMC7156037
These are yes or no findings as the source states them, for the method shown. Binding seen in cells or lysates may run through a third protein. Some entries that bind do so weakly or less than the wild type. Where a sequence is shown, tags or fusion partners need not be part of it.

Target: T1, … OF … (MAIN), FLAG-tagged (A. thaliana) (UniProt Q9LMT7)
T1 sequence: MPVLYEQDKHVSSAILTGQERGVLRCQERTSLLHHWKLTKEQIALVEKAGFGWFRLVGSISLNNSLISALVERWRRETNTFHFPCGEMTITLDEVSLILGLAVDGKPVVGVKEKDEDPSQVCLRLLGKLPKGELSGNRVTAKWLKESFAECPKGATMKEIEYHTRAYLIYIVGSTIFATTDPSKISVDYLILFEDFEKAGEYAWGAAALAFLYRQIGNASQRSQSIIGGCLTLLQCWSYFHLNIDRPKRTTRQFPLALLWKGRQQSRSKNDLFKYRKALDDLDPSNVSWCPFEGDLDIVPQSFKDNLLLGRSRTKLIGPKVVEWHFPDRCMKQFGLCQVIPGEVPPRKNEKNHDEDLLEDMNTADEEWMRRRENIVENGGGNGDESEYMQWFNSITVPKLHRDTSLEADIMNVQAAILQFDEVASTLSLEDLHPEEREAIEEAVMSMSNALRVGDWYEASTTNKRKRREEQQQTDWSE
Assay: co-IP; FLAG-tagged bait captured on M2 magnetic FLAG-beads from extract of 3-week-old seedlings co-expressing both tagged proteins; IP buffer 50mM Tris pH 7.6, 150mM NaCl, 5mM MgCl2, 0.1% Nonidet P-40, 10% glycerol, 0.5 mM DTT; 2 hour at 4°C; three washes; Western blot with anti-FLAG and anti-MYC; plants expressing only one tagged protein as negative controls

B1: MAIN-LIKE 1 (MAIL1), MYC-tagged (protein, UniProt Q9SK32 1-509)
chain: MDIDVGPVDPSVLYEQDLHVSSAVWEGQERGLLRCQEHTSLLHQWKLTDEQINLVDKAGFGYFRKIGPMSLNNSLISALVERWRRETNTFHLPLGEMTITLDEVALVLGLEIDGDPIVGSKVGDEVAMDMCGRLLGKLPSAANKEVNCSRVKLNWLKRTFSECPEDASFDVVKCHTRAYLLYLIGSTIFATTDGDKVSVKYLPLFEDFDQAGRYAWGAAALACLYRALGNASLKSQSNICGCLTLLQCWSYFHLDIGRPEKSEACFPLALLWKGKGSRSKTDLSEYRRELDDLDPSKITWCPYERFENLIPPHIKAKLILGRSKTTLVCFEKIELHFPDRCLRQFGKRQPIPLKVKRRDRKNRRLDDLDTSMSLACEEWAERGDHIVDSPGGGNVVDDGAYMEWYARISITKLYREAFLESQVMNMIACMREFEEAASGIALERLSPAEREVMESVKDTFANSLTFGGWQEVAVNSGYGKRRRRNEHTPTPNNGGGNDISSLLLQKEDS
With B1 the binding was “binds”.
